# From PubChem BioAssay AID504467 (National Center for Advancing Translational Sciences (NCATS), 2011)
# In all, about 330,000 compounds went through this assay and about 7,700 (2.3%) were called active. The shares of active, inactive and inconclusive entries below differ from those in the screen. The call rests on the fitted dose curve; in most records, active means well fitted inhibition curve with a large enough effect; inconclusive means small, poorly fitted or top-dose-only effect, or effect the other way; inactive means flat fitted curve, though single readings scatter. Potencies of inconclusive entries are doubtful fits and often do not repeat.
# Assay: qHTS screen for small molecules that inhibit ELG1-dependent DNA repair in human embryonic kidney (HEK293T) cells expressing luciferase-tagged ELG1; further: nearly all actives have a fitted effect of over 55% in size
# Details: HEK293T ELG1-luciferase reporter, luminescence, 16 h, DNA damage induced by 5-fluorouridine; series mostly up to 46.1 µM
# Outline: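 Cells (2,000 per well) received 5-fluorouridine plus test compound or DMSO and were incubated 16 hr at 37 °C, 5% CO2. Luciferase activity was read by luminescence 30 min after ONE-Glo addition; signal suppression marked inhibition of damage-induced ELG1 function.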
# Potency means the concentration at half of the fitted maximal effect.
row,Structure (SMILES),Potency
1,CC(=O)N(CCc1cccc(C)c1)Cc1cc2ccc(C)cc2[nH]c1=O,"inconclusive: 23.1 µM [inhibitor, single point]"
2,CCC(=O)N1c2ccc(S(=O)(=O)NCCc3ccc(C)cc3)cc2CC1C (stereo not drawn),inactive
3,COc1cc(C2CC(=O)Oc3cc(C)c(Br)c(C)c32)cc(OC)c1OC (stereo not drawn),inactive
4,O=C(CSc1ccccn1)Nc1ccc2c(c1)OCO2,"inconclusive: 18.3 µM [activator, partial curve]"
5,CC(C(=O)NC1CCCC1)N1CCN(Cc2ccccc2)CC1 (stereo not drawn),inactive
6,O=C(Nc1nnc(C2CC2)s1)C1Cc2ccccc2CN1S(=O)(=O)c1cccs1 (stereo not drawn),inactive
7,Cc1ccc(C(=O)Nc2ccc(C(=O)O)cc2NC(=O)c2ccc(C)cc2)cc1,"inconclusive: 5.17 µM [activator, partial curve]"
8,O=C(NNC1=C(C(=O)C(F)(F)F)CCC1)c1ccc(Br)cc1,"inconclusive: 20.6 µM [inhibitor, partial curve, poor fit]"
9,CC1CCC(NC(=O)CN2CCCN(Cc3ccc(F)cc3Cl)C2=O)CC1 (stereo not drawn),"inconclusive: 4.61 µM [inhibitor, single point]"
10,COC(=O)CCCNC(=O)c1ccc(S(=O)(=O)NCc2ccco2)cc1,inactive
11,O=C(CN1CCCc2ccccc21)N/N=C/c1ccc(O)cc1O,"inconclusive: 18.4 µM [activator, partial curve]"
12,O=C(c1cccc(Cl)c1)N1CCN(c2ncccn2)CC1,inactive
13,COc1ccc(N/N=C(\C#N)C(=N)N2CCOCC2)cc1,"inconclusive: 25.9 µM [activator, partial curve]"
14,O=C(CNc1cccc(C(F)(F)F)c1)Nc1cccc(S(=O)(=O)N2CCCC2)c1,"inconclusive: 10.3 µM [inhibitor, partial curve]"
15,CC(=O)N1CCN(c2nnc(-c3ccc(C)cc3)c3ccccc23)CC1,inactive
16,CCCOC(=O)c1ccc(NC(=O)Oc2ccccc2)cc1,"inconclusive: 29.1 µM [activator, single point]"
17,CCOC(=O)C1CCCN(C(=O)CC(c2ccccc2)c2ccccc2)C1 (stereo not drawn),"inconclusive: 25.9 µM [inhibitor, single point]"
18,N#CC1=C(N)Oc2cc(N)ccc2C1c1ccc(Cl)cc1 (stereo not drawn),inactive
19,Cc1c(NC(=O)COC(=O)C(c2ccc(Cl)cc2)C(C)C)c(=O)n(-c2ccccc2)n1C (stereo not drawn),"inconclusive: 25.9 µM [inhibitor, single point]"
20,Cc1cc(C)c2nc3s/c(=C/c4ccc5c(c4)n(C)c(=O)n5C)c(=O)n3c2c1,inactive
21,O=C(N[C@@H](Cc1ccccc1)C(=O)OCc1ccccc1)c1nc[nH]c1C(=O)N1CCN(c2ccccc2)CC1,inactive
22,COc1ccc(CCNC(=O)Cn2nnc(C(=O)Nc3cccc(C)c3C)c2N)cc1OC,inactive
23,CN(C)c1ccc(/C=N\Nc2ccccn2)cc1,"inconclusive: 2.59 µM [activator, full curve]"
24,O=C(NCCCNc1ccnc2cc(Cl)ccc12)c1ccccc1F,inactive
25,C[C@H](CO)N1C[C@H](C)[C@@H](CN(C)S(C)(=O)=O)Oc2ccc(NC(=O)Nc3ccc4c(c3)OCO4)cc2C1=O,inactive

row,Structure (SMILES),Potency
1,COc1ccc(Cc2nnc(NC(=O)Nc3ccc(F)cc3)s2)cc1OC,"inconclusive: 6.51 µM [inhibitor, partial curve]"
2,CCC1CCCCN1S(=O)(=O)c1c(C)n(C)c(=O)n(C)c1=O (stereo not drawn),"inconclusive: 0.184 µM [inhibitor, full curve, poor fit]"
3,CCOC(=O)c1c(NC(=O)COC(=O)C2CCC2)sc(C(=O)N(C)C)c1C,inactive
4,CC(=O)Nc1cccc(NC(=O)c2cc(-c3ccccn3)nc3ccc(Cl)cc23)c1,inactive
5,Cc1ccc(S(=O)(=O)N2CN(Cc3ccco3)c3nc4ccccc4nc32)cc1,inactive
6,Fc1ccc(-c2nc3ccccc3[nH]2)cc1,"inconclusive: 10.3 µM [activator, partial curve]"
7,N#Cc1ccc(C23CC4(C2)[C@H](CN(Cc2ccc(-c5ccccc5)cc2)[C@@H]4c2ccccc2)C3c2ccc(Cl)nc2)cc1 (stereo partly drawn),inactive
8,COc1ccc(N2CCN(C(=O)C3=NNC(=O)CC3)CC2)cc1,inactive
9,COc1ccc2nc(NC3=NC(c4ccccc4)CC(=O)N3)nc(C)c2c1 (stereo not drawn),"inconclusive: 23.1 µM [inhibitor, partial curve]"
10,COc1ccc(-c2csc(NC(=O)CCS(=O)(=O)c3ccccc3)n2)c(OC)c1,"inconclusive: 18.3 µM [inhibitor, single point]"
11,CC1CCCN(Cc2nc(Cc3ccccc3Cl)no2)C1 (stereo not drawn),"inconclusive: 14.6 µM [activator, single point]"
12,CN(C)CCCNC(=O)/C(=N\O)c1ccccc1,inactive
13,O=C(O)C1C2C=CC(C2)C1C(=O)NC1CCS(=O)(=O)C1 (stereo not drawn),"inconclusive: 23.1 µM [inhibitor, single point]"
14,Cc1c(CCO)c(=O)n(-c2ccccc2)n1S(=O)(=O)c1ccc(Cl)cc1,inactive
15,Cc1nc2ccc(S(=O)(=O)Nc3ccccc3C)cc2s1,"inconclusive: 29.1 µM [inhibitor, partial curve, poor fit]"
16,CCOC(=O)N1CCC(Nc2c(N3CCN(c4cccc(C(F)(F)F)c4)CC3)c(=O)c2=O)CC1,active: 18.4 µM
17,COc1ccc(NC(=S)N(CCN2CCCCC2)Cc2ccco2)cc1,inactive
18,O=[N+]([O-])c1ccccc1S(=O)(=O)Nc1cccc(S(=O)(=O)N2CCCC2)c1,inactive
19,COc1ccc(-c2cc(C(F)(F)F)n3ncc(C(=O)N4CCc5ccccc5C4)c3n2)cc1,active: 11.6 µM
20,Cc1[nH]ccc2c1[nH]c1cc(=O)ccc12,"inconclusive: 5.8 µM [inhibitor, partial curve]"
21,CC(=O)C1=C(C)NC(SCC(=O)c2ccc(Cl)cc2)=C(C#N)C1c1ccco1 (stereo not drawn),"inconclusive: 29.1 µM [inhibitor, single point]"
22,O=[N+]([O-])c1cccc2ccc(/C=C/c3ccc(Cl)cc3)nc12,"inconclusive: 11.6 µM [activator, partial curve, poor fit]"
23,CC(=O)Nc1ccc(Nc2ncnc3c2cnn3-c2ccccc2)cc1,"inconclusive: 9.2 µM [activator, partial curve]"
24,COc1ccc(NC(=O)c2cc(S(=O)(=O)N3CCOCC3)cn2C)cc1Cl,inactive
25,CC(C)C(=O)NNc1nc2ccccc2s1,"inconclusive: 20.6 µM [activator, partial curve]"

row,Structure (SMILES),Potency
1,O=C(O)CC1c2ccccc2CCN1S(=O)(=O)c1ccc(F)cc1 (stereo not drawn),"inconclusive: 18.3 µM [inhibitor, single point]"
2,COc1ccc(/C=N/NC(=O)CN(CCc2ccccc2)S(=O)(=O)c2ccc(NC(C)=O)cc2)cc1OC,"inconclusive: 25.9 µM [inhibitor, partial curve, poor fit]"
3,Cc1ccc(-n2c(C)cc(/C=C3/SC(=O)N(CC(=O)N4CCOCC4)C3=O)c2C)nc1,"inconclusive: 9.2 µM [activator, partial curve]"
4,CSc1cccc(NS(=O)(=O)c2ccccc2)c1,inactive
5,COc1ccc(OC)c(-c2oc3ccccc3c(=O)c2O)c1,inactive
6,C/C=C/c1ccc(OCCCCOc2ccc(OC)cc2)c(OC)c1,inactive
7,Oc1[nH]c2ccc(Br)cc2c1N=NC(=S)Nc1ccc(F)cc1,"inconclusive: 18.3 µM [inhibitor, partial curve]"
8,C/C(=N\Nc1ccc(C(=O)O)cc1)c1ccc(Br)cc1,"inconclusive: 0.0651 µM [activator, full curve]"
9,CNc1cc(Cl)nc(SC)n1,inactive
10,O=C(CSC(=S)N1CCCCC1)N1N=CCC1c1ccccc1 (stereo not drawn),"inconclusive: 20.6 µM [activator, partial curve]"
11,COc1cc(/C=C2\SC(=S)N(NS(=O)(=O)c3ccccc3)C2=O)ccc1O,"inconclusive: 20.6 µM [activator, partial curve]"
12,COc1ccc(CN2CCN(Cc3cn(C)nc3-c3ccccc3)CC2CCO)c(C)c1C (stereo not drawn),"inconclusive: 29.1 µM [inhibitor, single point]"
13,CN(C)c1ccc(Nc2cc(Cl)ncn2)cc1,"inconclusive: 11.2 µM [activator, partial curve]"
14,Oc1cc(O)c2c(c1)O[C@H](c1ccc(O)c(O)c1)[C@@H](O)C2,inactive
15,C=CCCC(=O)N1CCC(n2nccc2NC(=O)c2ccc(OC)cc2)CC1,"inconclusive: 20.6 µM [activator, single point]"
16,COc1ccc(C(C)=O)cc1CSc1nnnn1-c1ccc(O)cc1,"inconclusive: 29.1 µM [inhibitor, single point]"
17,Cc1ccccc1OCC(O)Cn1c(SC(C)C)nc2c1c(=O)[nH]c(=O)n2C (stereo not drawn),"inconclusive: 18.4 µM [inhibitor, partial curve]"
18,COc1ccccc1C(=O)Nc1cccc(SC)c1,"inconclusive: 18.4 µM [activator, single point]"
19,OCCC1CN(Cc2cc3c(cc2Cl)OCO3)CCN1C1CCCC1 (stereo not drawn),inactive
20,CCCNC(=O)c1cccc(Cn2cc(Br)c([N+](=O)[O-])n2)c1,"inconclusive: 16.4 µM [inhibitor, partial curve, poor fit]"
21,COc1ccc(C2CC(c3ccccc3C(F)(F)F)=NN2c2ccc(S(N)(=O)=O)cc2)cc1 (stereo not drawn),"inconclusive: 29.1 µM [inhibitor, single point]"
22,COC(=O)c1ccc(C)c(NS(=O)(=O)c2ccc(OC)cc2)c1,"inconclusive: 8.2 µM [activator, partial curve, poor fit]"
23,CC(=O)Oc1ccc(NC(=O)C2CCCCC2)c(C(=O)O)c1,inactive
